{
  "source": "patent US11693017B2",
  "about": "“Small molecule biosensors” (President and Fellows of Harvard College, priority 2015, dated 2023)",
  "key": {"[1]": {"test_system": "G-DIG1-V-Matα2 biosensor with pUAS::Luc in transgenic Arabidopsis plants", "test": "TF-biosensor assays in transgenic Arabidopsis plants", "assay_type": "in vivo, Arabidopsis thaliana", "method": "Transgenic plants expressing the digoxin biosensor genetic circuit were tested for digoxigenin-induced luciferase expression by placing 14-16 day old plants in liquid MS (-sucrose) media supplemented with 0.1 mM digoxigenin in 24-well plates, and incubated in a growth chamber at 24° C., […] light.\nLuciferase expression was measured by imaging plants with a Stanford Photonics XR/MEGA-10 ICCD Camera, after spraying luciferin and dark adapting plants for 30 minutes. Luciferase expression was quantified using Piper Control (v.2.6.17) software. Plants from line KJM58-10 were used to test for specificity of induction by incubating plants, as described above, in 0.1 mM digoxigenin, 0.1 mM digitoxigenin, and 0.02 mM β-estradiol. All chemicals were obtained from Sigma-Aldrich (St. Louis, Mo.)."}, "[2]": {"biological_target": "DIG10.3 (DIG0)", "details": "cited from earlier work"}},
  "note": "For at least one compound, name, drawing or mass did not settle the structure.",
  "data": [
    {"molecule": "C[C@]12CC[C@H](O)C[C@H]1CC[C@@H]1[C@@H]2C[C@@H](O)[C@]2(C)[C@@H](C3=CC(=O)OC3)CC[C@]12O", "note": "[digoxigenin]", "values": [
      {"measurement": "induction of the biosensor", "setting": "[1]", "value": "capable of inducing"},
      {"measurement": "affinity of binding to DIG10.3 (DIG0)", "setting": "[2]", "value": "picomolar"}
    ]}
  ]
}
